# Values from PubChem BioAssay AID1159599 (NIAID, 2016).
# Assay: 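Mouse macrophage genes that control Tnf-alpha promoter output upon LPS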
# Cell system: mouse RAW264.7 G9 macrophage reporter clone cells
# Knock-down reagent: single siRNA against mouse genes
# Time to read-out: 48 to 72 h after siRNA transfection, LPS for the last 16 h
# Treatment: LPS (Salmonella minnesota R595), 16 h before fixation; dose not stated
# Read-out: 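High-content imaging of red fluorescence driven by the Tnf promoter after LPS, background subtracted, scored per siRNA as a plate-wise median/MAD robust z-score, replicate mean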
# Scale: Tnf reporter z-score: higher = stronger Tnf promoter reporter signal after LPS
# Call rule: 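Active when the replicate-mean Tnf reporter z-score is about -1.5 or lower, or about 1.5 or higher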
# Meaning of the calls: active = strong change either way; inactive = little change
# The whole screen tested 756 reagents; below is an unselected part. 130 of all reagents (17%) count as active. 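Calls are two-sided: actives include siRNAs that raised the Tnf reporter as well as ones that lowered it.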 Unmarked entries are inactive. Reagents against one gene are numbered here. The record does not give: the amount of reagent.
target gene,siRNA no.,"Tnf reporter z-score, replicate mean"
Nfkbia,1,1.24
Nfkbia,2,-1.68 (active)
Nfkbia,3,1.49
Nfkbia,4,-0.281
Nfkbia,5,0.575
Nfkbia,6,0.104
Peli1,1,1.46
Peli1,2,0.476
Peli1,3,0.268
Peli1,4,2.59 (active)
Peli1,5,-1.22
Peli1,6,-0.644
Dusp2,1,0.668
Dusp2,2,-2 (active)
Dusp2,3,2.29 (active)
Dusp2,4,0.734
Dusp2,5,-0.374
Dusp2,6,-0.688
Tnfaip3,1,1.28
Tnfaip3,2,-0.375
Tnfaip3,3,-0.327
Tnfaip3,4,0.312
Tnfaip3,5,1.14
Tnfaip3,6,1.25
Map3k1,1,-0.148
Map3k1,2,-2.4 (active)
Map3k1,3,0.492
Map3k1,4,1.18
Map3k1,5,-0.309
Map3k1,6,0.196
Cyld,1,1.55 (active)
Cyld,2,-0.717
Cyld,3,-0.424
Cyld,4,0.89
Cyld,5,1.97 (active)
Cyld,6,1.46
Ptk2b,1,-0.137
Ptk2b,2,0.802
Ptk2b,3,-0.583
Ptk2b,4,-1.86 (active)
Ptk2b,5,-0.534
Ptk2b,6,-0.446
Ube2n,1,-0.108
Ube2n,2,-1.05
Ube2n,3,0.0827
Ube2n,4,-0.466
Ube2n,5,-0.167
Ube2n,6,-0.82

Targets listed so far whose target name begins with C or c:
target gene,siRNA no.,"Tnf reporter z-score, replicate mean"
Cyld,1,1.55 (active)
Cyld,2,-0.717
Cyld,3,-0.424
Cyld,4,0.89
Cyld,5,1.97 (active)
Cyld,6,1.46
